Library screen at single concentrations

Protein sequences, listed by entry. Tags and fused reporters are not part of them.
UniProt I6X8D2, whole entry: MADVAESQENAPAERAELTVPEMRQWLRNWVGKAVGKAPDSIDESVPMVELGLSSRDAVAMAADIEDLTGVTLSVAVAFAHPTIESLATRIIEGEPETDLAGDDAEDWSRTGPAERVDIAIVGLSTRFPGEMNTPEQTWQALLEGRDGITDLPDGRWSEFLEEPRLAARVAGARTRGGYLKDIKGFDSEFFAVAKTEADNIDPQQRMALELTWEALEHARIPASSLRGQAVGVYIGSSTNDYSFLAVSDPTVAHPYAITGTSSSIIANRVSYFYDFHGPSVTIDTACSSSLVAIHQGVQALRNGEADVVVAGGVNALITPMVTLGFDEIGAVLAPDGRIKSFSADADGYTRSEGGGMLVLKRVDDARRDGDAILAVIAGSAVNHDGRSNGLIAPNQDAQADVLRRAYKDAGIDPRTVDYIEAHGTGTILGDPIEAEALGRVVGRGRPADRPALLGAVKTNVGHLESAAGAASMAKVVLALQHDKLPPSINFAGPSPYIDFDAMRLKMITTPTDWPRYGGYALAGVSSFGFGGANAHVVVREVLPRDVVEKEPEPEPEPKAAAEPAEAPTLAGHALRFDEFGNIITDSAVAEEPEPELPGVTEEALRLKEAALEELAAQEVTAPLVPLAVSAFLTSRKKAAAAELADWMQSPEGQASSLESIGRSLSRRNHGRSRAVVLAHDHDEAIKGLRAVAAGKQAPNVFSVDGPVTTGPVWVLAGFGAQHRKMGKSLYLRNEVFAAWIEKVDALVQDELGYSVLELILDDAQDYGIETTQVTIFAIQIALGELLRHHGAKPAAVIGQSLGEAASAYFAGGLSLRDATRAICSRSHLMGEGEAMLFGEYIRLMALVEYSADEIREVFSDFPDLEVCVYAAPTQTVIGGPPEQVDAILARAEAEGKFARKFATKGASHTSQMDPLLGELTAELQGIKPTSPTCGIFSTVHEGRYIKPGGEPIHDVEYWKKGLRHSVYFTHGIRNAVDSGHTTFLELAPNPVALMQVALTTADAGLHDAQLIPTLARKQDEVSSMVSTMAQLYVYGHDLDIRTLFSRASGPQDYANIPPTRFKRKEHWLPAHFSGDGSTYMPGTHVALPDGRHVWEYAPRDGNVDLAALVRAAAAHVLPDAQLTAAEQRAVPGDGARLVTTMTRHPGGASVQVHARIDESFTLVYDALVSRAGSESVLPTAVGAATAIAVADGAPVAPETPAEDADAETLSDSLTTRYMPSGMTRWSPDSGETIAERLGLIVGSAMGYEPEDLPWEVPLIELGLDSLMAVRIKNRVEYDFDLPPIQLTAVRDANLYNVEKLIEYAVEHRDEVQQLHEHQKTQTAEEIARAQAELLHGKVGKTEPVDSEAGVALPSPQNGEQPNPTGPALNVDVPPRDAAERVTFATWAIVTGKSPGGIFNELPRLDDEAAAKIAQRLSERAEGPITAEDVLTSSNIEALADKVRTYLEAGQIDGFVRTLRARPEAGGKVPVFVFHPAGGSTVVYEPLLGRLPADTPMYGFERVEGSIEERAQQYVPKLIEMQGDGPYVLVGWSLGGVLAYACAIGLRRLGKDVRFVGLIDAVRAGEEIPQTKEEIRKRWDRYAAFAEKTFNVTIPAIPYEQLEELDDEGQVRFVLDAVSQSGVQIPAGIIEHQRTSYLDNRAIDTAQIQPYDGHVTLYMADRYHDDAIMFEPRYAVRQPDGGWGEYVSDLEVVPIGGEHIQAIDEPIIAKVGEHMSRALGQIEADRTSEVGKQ

Data taken from ChEMBL document CHEMBL3988442, “University of Dundee, Small-Polar-MMV Screening Library” (2021).

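Enzyme assay of the thioesterase domain of polyketide synthase 13; the read-out is not stated. Target: Polyketide synthase Pks13, Mycobacterium tuberculosis (UniProt I6X8D2). Tested at 30 µM. The record gives no direction; the compounds picked for IC50 retests had high values, so higher reads as stronger inhibition. Size under these conditions: about 67,000 compounds, about 300 of them at 50% or above in at least one test.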

Results are given as percent effect. The record does not define 0% and 100%; most values in the screen are far below 50% and negative numbers occur (in some assays of this library far below -100). The compounds are a random part of those screened.

| # | structure | percent effect |
|---|---|---|
| 1 | `Cc1nsc(N2CCN(CC(=O)NCc3cccnc3)CC2)n1` | -29.15 |
| 2 | `CC(=O)Nc1ccc(Cl)c(C(=O)N(C)C(C)c2nccs2)c1` (stereo not shown) | -19.28 |
| 3 | `Cn1ccnc1-c1noc(NCc2ccc3c(c2)OCCO3)n1` | -16.11 |
| 4 | `Cc1cc(N2CCC(O)(C(=O)O)CC2)nc2ccccc12` | 18.97 |
| 5 | `COc1cccc(N2CC3(CCN(C(=O)NC(C)C)C3)CC2=O)c1` (stereo not shown) | -13.52 |
| 6 | `CCn1cc(NC(=O)NCC(C)N(C)C)cn1` (stereo not shown) | -21.54 |
| 7 | `CC(O)c1cccc(Nc2nc(NCCO)c3ccccc3n2)c1` (stereo not shown) | 28.3 |
| 8 | `CC(=O)NCCCSC1CCN(c2c(F)cccc2F)C1=O` (stereo not shown) | -5.992 |
| 9 | `OCc1ccccc1CNCC1CNc2ccnn2C1` (stereo not shown) | -27.6 |
| 10 | `Cn1ccnc1COc1ccc(CN2CCC(C(N)=O)CC2)cc1` | -14.39 |
| 11 | `Cc1nc(O)cc(C2CCN(C(=O)c3ccsc3)CC2)n1` | -10.19 |
| 12 | `CC(C)=CCN(C)C1CCCN(Cc2noc(C)n2)C1` (stereo not shown) | -13.13 |
| 13 | `FC(F)(F)CCc1ccnc(N2CCN(CCc3ccncc3)CC2)n1` | 1.534 |
| 14 | `CN(Cc1cccnc1)C1CC2(CCN(C(=O)c3cscn3)CC2)C1` | 11.22 |
| 15 | `Fc1cnc(N2CCCC3(CCN(Cc4ccco4)C3)C2)nc1` (stereo not shown) | -16.09 |
| 16 | `c1ccc2c(Cc3nnc([C@H]4CCNC4)o3)c[nH]c2c1` | -21.22 |
| 17 | `COC(=O)CN(C(=O)c1ccoc1)c1cccc(F)c1` | -19.17 |
| 18 | `O=C1CCC(=O)c2oc3ccc(Br)cc3c2N1` | 7.907 |
| 19 | `COCCCC1(CO)CCCN(C(=O)c2cnc(C3CC3)nc2)C1` (stereo not shown) | -3.31 |
| 20 | `Cc1nn(C)c(C)c1C(C(=O)O)N1CC=C(c2ccccc2)CC1` (stereo not shown) | -25.95 |
| 21 | `CNC(=O)[C@@H](c1ccccc1F)N1CCC[C@H]1C(=O)NC1CCOCC1` | -17.66 |
| 22 | `CS(=O)(=O)N1CC[C@]2(O)CCN(c3ccnc(N)n3)C[C@@H]2C1` | -23.77 |
| 23 | `CCOCC1CN(C(=O)c2cnoc2C)Cc2cn(CC3CC3)nc21` (stereo not shown) | -4.749 |
| 24 | `CN(C)C(C(=O)N1CC(c2ccccn2)C1)c1cccc(F)c1` (stereo not shown) | -44.93 |
| 25 | `O=C(NCCc1nc(-c2ccccn2)no1)c1ccc(C2CCCO2)s1` (stereo not shown) | -12.19 |
| 26 | `COc1ccc(CN2CC[C@@H]3CN(S(C)(=O)=O)CCO[C@@H]3C2)cc1` | -17.66 |
| 27 | `CN(CC1CC1)C(=O)Cc1csc(-c2ncccn2)n1` | -31.64 |
| 28 | `CN(CCO)Cc1nnc(C2CCN(CC(C)(C)C)CC2)n1C` | -26.14 |
| 29 | `CN(C)[C@@H]1CCN(C(=O)c2ccccn2)[C@H]1Cc1ccncc1` | -12.09 |
| 30 | `Cc1ccccc1CS(=O)(=O)CC(=O)NCc1ccccc1F` | -42.5 |
| 31 | `CNc1ncccc1C(=O)N1CCN(Cc2ccc(C)cc2)C(=O)C1C` (stereo not shown) | -0.1581 |
| 32 | `CC(C)CC(=O)N1CCC(Nc2nc(O)cc(-c3ccsc3)n2)CC1` | -2.8 |
| 33 | `Nc1ncccc1CN1C[C@H]2OC(=O)N(Cc3ccccn3)[C@H]2C1` | -12.01 |
| 34 | `O=C(NCCCn1nc2ccccn2c1=O)Nc1ccc(F)cc1F` | 0.4314 |
| 35 | `C[C@@H]1CN(CCCOc2ccc(F)cc2)CC[C@@]1(O)C1CCOCC1` | -10.78 |
| 36 | `Cc1nc(-c2ccc(F)c(F)c2)cc(C2CCNCC2)n1` | 8.782 |
| 37 | `c1cnc(-c2nc(CN3CCCN(Cc4cccs4)CC3)cs2)nc1` | -19.88 |
| 38 | `COCC(C)NC(=O)c1cc(Br)c2c(c1)OCCO2` (stereo not shown) | -11.01 |
| 39 | `CCn1cnnc1C1CCN(C(=O)c2cnn(C(C)(C)C)c2)CC1` | -0.3803 |
| 40 | `O=C1N(Cc2ccc(F)c(F)c2)CCCC1(O)CNCc1cccnc1` (stereo not shown) | -4.076 |
| 41 | `CS(=O)(=O)NCCC(=O)Nc1cnn(-c2ccccc2Cl)c1` | -7.511 |
| 42 | `COc1cccnc1-c1ccc(F)c2c1OC(CN)C2` (stereo not shown) | 1.556 |
| 43 | `Cc1nc(C(C)(C)C)sc1C(=O)NCCNc1ncccc1C#N` | 19.88 |
| 44 | `Cc1c(NCCO)cccc1OC1CCCC1` | -26.63 |
| 45 | `Cc1ncsc1C(=O)N1CCCN(Cc2cscn2)CC1` | -14.82 |
| 46 | `N#CCCN(CC1CCCO1)C(=O)c1ccc(C#N)cc1` (stereo not shown) | 5.607 |
| 47 | `Cc1cnn(C2CN(Cc3nnc(Cc4ccccc4)o3)C2)c1` | -26.43 |
| 48 | `Cc1ccc(CN2CCC3(CC2)C(=O)N(C)c2ccccc23)s1` | -36.33 |
| 49 | `CC(C)CCN(C(=O)c1cccc(NC(N)=O)c1)C1CC1` | -12.94 |
| 50 | `Cc1cc(C(=O)Nc2cccn(Cc3ccc(F)cc3)c2=O)on1` | -3.738 |
| 51 | `Cc1cnn(CC(C)NCc2cccnc2)c1` (stereo not shown) | -10.29 |
| 52 | `c1ccc(CN2CCCC(Cn3cncn3)C2)nc1` (stereo not shown) | -15.63 |
| 53 | `CC(C)NC(=O)N1CCCC(c2nnc(CN3CCOCC3)n2C)C1` (stereo not shown) | -6.166 |
| 54 | `Cn1cc(C2CCCN2C(=O)c2cnc(-c3ncccn3)s2)cn1` (stereo not shown) | -5.688 |
| 55 | `c1cncc(COCc2nnc3n2CCN(Cc2ccco2)C3)c1` | 20.76 |
| 56 | `COCc1nc(NC(C)Cc2cc(C)n[nH]2)c2cnn(C)c2n1` (stereo not shown) | -31.29 |
| 57 | `Cc1cccc(NC(=O)[C@@H]2CCCN2CC(=O)Nc2ccccc2)n1` | -15.98 |
| 58 | `CN(Cc1nccn1CC(F)(F)F)C(=O)c1cccc(C#N)c1` | -27.94 |
| 59 | `Cc1ccc(-c2nnn(CCN3C(=O)CCC3=O)n2)cc1` | -22.8 |
| 60 | `COCC1c2nnn(CC3CC3)c2CCN1Cc1ccncc1` (stereo not shown) | 0.7104 |
| 61 | `Cc1nc(C)c(C(=O)N2CCCN(Cc3cnn(C)c3)CC2)s1` | -28.31 |
| 62 | `O=C(C1CC(=O)N(c2n[nH]c3cc(Br)ccc23)C1)N1CCSCC1` (stereo not shown) | -14.27 |
| 63 | `Cc1ncnc2c1CCN(C(=O)c1cnccn1)CC2` | -29.7 |
| 64 | `CC(C)c1cc(C(=O)NCC2(C(N)=O)CCOCC2)nn1C(C)(C)C` | -15.31 |
| 65 | `Cc1cc(CN2C[C@@H](N3CCN(C)CC3)[C@H]3OCCC[C@H]32)oc1C` | -24.16 |
| 66 | `OC(COCc1cccs1)CSc1nnc2ccccn12` (stereo not shown) | -9.014 |
| 67 | `COc1ccccc1-n1cc(C(=O)NCCCn2ccnn2)cn1` | -1.767 |
| 68 | `Cc1nn(C)c(Cl)c1C1CCCN1CC(=O)N1CCCCC1` (stereo not shown) | -9.048 |
| 69 | `O=C([C@@H]1COC[C@H]2CN(C3CCCC3)C[C@H]21)N1CCC(F)CC1` | -747.6 |
| 70 | `CC(NC(=O)N1CCc2ccccc21)c1nncn1C` (stereo not shown) | -11.01 |
| 71 | `CC(=O)N1CCc2nnc(C3CCCCN3CC3CC3)n2CC1` (stereo not shown) | 3.856 |
| 72 | `COCCN1CCCn2c(nc(Cn3cncn3)cc2=O)C1` | -5.008 |
| 73 | `O=C(Cn1nnn(-c2cccs2)c1=O)NCC1CCOC1` (stereo not shown) | -10.48 |
| 74 | `CC(C)N(C)Cc1cnc2n1CCN(Cc1cccc(F)c1)C2` | -11.08 |

Some entries from above, unchanged:

structure,percent effect
COc1cccnc1-c1ccc(F)c2c1OC(CN)C2 (stereo not shown),1.556
COc1ccccc1-n1cc(C(=O)NCCCn2ccnn2)cn1,-1.767
FC(F)(F)CCc1ccnc(N2CCN(CCc3ccncc3)CC2)n1,1.534
c1ccc(CN2CCCC(Cn3cncn3)C2)nc1 (stereo not shown),-15.63